From PubChem BioAssay AID540256 (National Center for Advancing Translational Sciences (NCATS), 2011)
About 3,700 (1.2%) of roughly 300,000 compounds were called active. The shares of active, inactive and inconclusive entries below differ from those in the screen. The call rests on the fitted dose curve; tested in HEK293 cells. A potency beside an inconclusive call is a rough fit, not a confirmed value.

Assay: qHTS for Inhibitors of binding or entry into cells for Lassa Virus; further: nearly all actives have a fitted effect of over 50% in size
Settings: Lassa virus pseudotype entry inhibition, cell reporter; series mostly up to 37.9 µM
Potency means the concentration at half of the fitted maximal effect.

Row | SMILES | Potency
1 | CCN1C(=O)C(CC(=O)Nc2ccc(OC)cc2)N(CCc2ccc(F)cc2)C1=S (centres undefined) | inconclusive: 35.5 µM [inhibitor, single point]
2 | O=C(COC(=O)c1ccccc1Cl)Nc1nccs1 | inactive
3 | O=C(CCc1c[nH]c2ccccc12)NCCc1ccc2c(c1)OCCO2 | inconclusive: 18.3 µM [inhibitor, partial curve, poor fit]
4 | O=C(NCCN1CCOCC1)c1ccc(N2CCCC2)c([N+](=O)[O-])c1 | inconclusive: 10 µM [inhibitor, partial curve, poor fit]
5 | COc1ccc(C(=O)c2ccc(Cl)cc2)cc1 | inactive
6 | Cc1ccc(C(=O)Nc2cc(Cl)ccc2-n2cncn2)s1 | inactive
7 | CCCC(=O)N(c1ccc2oc(C)c(C(C)=O)c2c1)S(=O)(=O)c1ccc(CC)cc1 | inconclusive: 11.2 µM [inhibitor, partial curve, poor fit]
8 | O=C(Cc1ccc(Br)cc1)NCCCn1ccnc1 | inconclusive: 1.26 µM [inhibitor, single point]
9 | O=C1c2ccccc2NC(c2cccc(O)c2)N1NS(=O)(=O)c1ccccc1 (centres undefined) | inconclusive: 0.562 µM [inhibitor, full curve, poor fit]
10 | O=C(c1cccc(S(=O)(=O)NCc2ccccc2)c1)N1CCN(c2cccc(C(F)(F)F)c2)CC1 | inconclusive: 15.8 µM [inhibitor, single point]
11 | Cc1nc2ccccc2c(=O)n1NC(=O)C1CCC(C(C)(C)C)CC1 (centres undefined) | inconclusive: 0.316 µM [inhibitor, full curve]
12 | CCOc1ccc(CCNC(=O)c2cc3cccc4c3n2CCS4)cc1 | inconclusive: 14.1 µM [inhibitor, single point]
13 | COc1cccc(NC(=O)C2CCCN(S(=O)(=O)c3cn(C(C)C)cn3)C2)c1 (centres undefined) | inactive
14 | COC(=O)c1c(-c2ccc(Cl)cc2)noc1N1CCN(c2cc(C)ccc2C)CC1 | inactive
15 | CCN(CC)S(=O)(=O)c1ccc2c(c1)N(CC(=O)Nc1ccccc1F)C(=O)C1CCCN21 (centres undefined) | inactive
16 | CCCNC(=O)Cn1c(=O)n(CC2CCC(C(=O)NC)CC2)c(=O)c2sccc21 (centres undefined) | inconclusive: 15.8 µM [inhibitor, single point]
17 | O=C(Oc1ccc(C(=S)N2CCOCC2)cc1)c1ccccc1 | inactive
18 | CC=COC(=O)N[C@@H](c1ccccc1)[C@]1(C(C)=O)CCCC1=O | inconclusive: 0.0335 µM [inhibitor, full curve, poor fit]
19 | O=C(O)/C=C/C(=O)Nc1ccc(SC(F)(F)F)cc1 | inconclusive: 32.6 µM [activator, partial curve, poor fit]

Given as comma-separated lines: entries from further up.
Row,SMILES,Potency
8,O=C(Cc1ccc(Br)cc1)NCCCn1ccnc1,"inconclusive: 1.26 µM [inhibitor, single point]"
9,O=C1c2ccccc2NC(c2cccc(O)c2)N1NS(=O)(=O)c1ccccc1 (centres undefined),"inconclusive: 0.562 µM [inhibitor, full curve, poor fit]"
